For at least one compound, name, drawing or mass did not settle the structure.
Test system: M. tuberculosis
Test: 16S rRNA level by Northern blotting before and after rifampicin
Assay type: cell-based, Mycobacterium tuberculosis
Settings: after 7 days of treatment; log-phase and stationary phase organisms

CO[C@H]1/C=C/O[C@@]2(C)Oc3c(C)c(O)c4c(O)c(c(/C=N/N5CCN(C)CC5)c(O)c4c3C2=O)NC(=O)/C(C)=C\C=C\[C@H](C)[C@H](O)[C@@H](C)[C@@H](O)[C@@H](C)[C@H](OC(C)=O)[C@@H]1C [rifampicin]
16S rRNA signal intensity remaining (densitometric analysis): about half
